According to patent publication US12571794B2, “Epigen AU/11: a natural matrix for restoring homeostasis in cancer cell-infiltrated tissue” (priority 2024, dated 2026):

Test system: activated sludge inoculum (non adapted microorganisms)
Assay: Ready biodegradability, manometric respirometry OECD 301F:1992

## CC(=O)[O-].[Na+] [Sodium Acetate]
After 7 days
  BOD value as % of the total: 78.77%
After 14 days
  BOD value as % of the total: 88.31%
Reference substance 50 mg/L
  BOD Day 1: 10.2 ppm
  BOD Day 7: 25.6 ppm
  BOD Day 14: 28.7 ppm
  BOD Day 21: 30.3 ppm
  BOD Day 28: 32.5 ppm
